According to PMC7862700:
The other results are listed elsewhere or left out. The source does not settle which construct or isoform was used.

Target: T1, ETS1 (UniProt P14921)
T1 sequence: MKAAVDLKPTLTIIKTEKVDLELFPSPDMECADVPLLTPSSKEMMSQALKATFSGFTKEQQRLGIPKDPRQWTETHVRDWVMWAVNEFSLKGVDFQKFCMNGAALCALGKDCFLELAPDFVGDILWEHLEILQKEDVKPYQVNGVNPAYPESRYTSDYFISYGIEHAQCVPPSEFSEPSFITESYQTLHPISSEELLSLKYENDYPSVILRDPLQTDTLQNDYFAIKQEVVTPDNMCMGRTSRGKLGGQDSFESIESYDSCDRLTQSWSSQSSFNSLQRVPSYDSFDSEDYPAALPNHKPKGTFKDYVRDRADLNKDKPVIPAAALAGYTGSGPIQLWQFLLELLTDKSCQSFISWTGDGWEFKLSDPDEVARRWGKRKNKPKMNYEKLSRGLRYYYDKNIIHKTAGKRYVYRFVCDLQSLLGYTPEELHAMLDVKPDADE
Assay: DAPPL (digital affinity profiling via proximity ligation, sequencing)
Conditions: 10 mM Tris-HCl pH 7.5, 50 mM NaCl, 1 mM DTT, 4% glycerol, room temperature, 30 min; GST-TFs on glutathione beads, 16-mer random dsDNA library, 0.1% …; high values mean tight binding; double strand, one strand shown; scale: fold enrichment (6-mer frequency, TF over GST control)

Row | Sequence | binding signal
1 | CTCTGC | 1.56
2 | TGGCAG | 1.08
3 | AAAAGT | 1.12
4 | GATTAC | 1.11
5 | CTCCGG | 1.54
6 | GAATAC | 1.03
7 | TAACAA | 1.26
8 | TTTAGC | 1.15
9 | GGCTCA | 1.17
10 | TGGCTA | 1.21
11 | CCTCAC | 1.25
12 | ATAAAT | 1.23
13 | TCGAAT | 1.11
14 | TACCGC | 1.11
15 | ATATGA | 1.13
16 | ACGTTA | 1.08
17 | AAGTAA | 1.31
18 | CCTGGA | 1.41
19 | TTATGT | 1.39
20 | CGCTAG | 1.15

Row | Sequence | binding signal
21 | CAATTG | 1.26
22 | AATTTA | 1.29
23 | CGCCCT | 1.33
24 | CGCCTC | 1.48
25 | ATGAAA | 1.21
26 | GCTTCA | 1.28
27 | TAAGAT | 1.18
28 | TAAACG | 1.18
29 | GACCTT | 1.6
30 | AAGGTA | 1.15
31 | TACGAT | 1.1
32 | ATGTAC | 1.37
33 | CGCTTT | 1.14
34 | TCTGCA | 1.22
35 | CGACTC | 1.33
36 | AAAGAA | 1.31
37 | CTCAAT | 1.24
38 | ATATTA | 1.09
39 | CCTCTC | 1.48

As a working copy, some entries already given:
Row | Sequence | binding signal
26 | GCTTCA | 1.28
27 | TAAGAT | 1.18
28 | TAAACG | 1.18
29 | GACCTT | 1.6
30 | AAGGTA | 1.15
31 | TACGAT | 1.1
32 | ATGTAC | 1.37
33 | CGCTTT | 1.14
34 | TCTGCA | 1.22
35 | CGACTC | 1.33
36 | AAAGAA | 1.31
